Experimental data as given in PMC9957399, “New Insights into the Inhibition of Hesperetin on Polyphenol Oxidase: Inhibitory Kinetics, Binding Characteristics, Conformational Change and Computational Simulation” (Foods, 2023).

System: T1, PPO
T1 construct: purchased Worthington Biochemical Co. (Lakewood, CO, USA)
Assay: Fluorometric titration (fluorescence quenching of PPO)
Type: binding, mushroom
Description: Fluorescence spectra were measured at 298, 304 and 310 K by a fluorophotometer (F–7000, Hitachi, Tokyo, Japan). Briefly, the concentration of PPO was 2.0 μM, and the same volume of hesperetin was added into the PPO solution (2.0 mL) 10 times (0→25.0 μM). After each addition of hesperetin, 3 min was timed to equilibrate the mixed system. Then, the emission spectra (290–500 nm) were scanned at fixed excitation wavelength (280 nm).
To deduct the effect of internal filtration, all measured fluorescence data were processed through Formula (5):(5) FC=FMe^(A1+A2)/2 where FC and FM represent the corrected and detected fluorescence, respectively. A1 and A2 stand for the absorbance values of hesperetin at excitation and emission wavelengths, respectively.
The Stern–Volmer curves for PPO fluorescence quenched by hesperetin at each temperature were obtained through Equation (6):(6) F0/F=1+Kqτ0[Q]=1+Ksv[Q] where F and F0 denote the fluorescence intensity of PPO with and without hesperetin, respectively. Ksv, Kq and [Q] represent the fluorescence quenching constant, quenching rate constant and the concentration of hesperetin, respectively. τ0 represents the average fluorophore lifetime without hesperetin, and its value is usually equal to 10^−8 s.
Based on the following equation, the information about the interaction between hesperetin and PPO were obtained, including binding constant (Ka) and binding number (n):(7) logF0−F/F=nlogKa−nlog1/[Qt]−(F0−F)[Pt]/F0 where [Qt] and [Pt] stand for the concentrations of hesperetin and PPO. […] The n values at 298, 304 and 310 K were all equal to 1, implying that only one site existed when hesperetin interacted with PPO.
The values of ΔH°, ΔS° and ΔG°, which refer to enthalpy change, entropy change and free energy change, respectively, were obtained by the van ’t Hoff equations [42]:(8) logKa=−ΔH°/2.303RT+ΔS°/2.303R (9) ΔG°=ΔH°−TΔS° where T represents temperature; R represents gas constant, and its value is 8.314 J mol^−1 K^−1.

COc1ccc([C@@H]2CC(=O)c3c(O)cc(O)cc3O2)cc1O [hesperetin, Hesperetin]
ΔG° (298 K): -24.49 kJ/mol
ΔG° (304 K): -25.13 kJ/mol
ΔG° (310 K): -25.77 kJ/mol
ΔS° (van 't Hoff, 298–310 K): 107.22 J mol^−1K^−1
